± gives the standard deviation of the averaged measurements. This is one part of the list. Values are raw readings; no control value is given beside them.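 In this assay, LPS from bacteria induces microglia-mediated neuronal death in a neuron–microglia–astrocyte co-culture, a model of inflammatory neurodegeneration. Compounds were compared against same-plate DMSO vehicle wells, with the SYK inhibitor BAY61-3606 as reference neuroprotective control.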
What follows are molecules tested on rat primary cerebellar neuron-glia coculture (assay: necrotic cell count (DRAQ7+) per image field (cells per field); higher = more necrosis). Details: LPS 0 ng/mL; 1 µM; treatment time 3 days.
Procedure: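 Primary rat (P3-7) cerebellar neuron-glia cocultures in 384-well plates were treated at DIV7 with 1 uM compound, then with or without 100 ng/mL LPS 30 min later, for 3 days. At DIV10 live cells were stained with Hoechst 33342, NeuO (live neurons), IB4-AF594 (microglia) and DRAQ7 (necrotic cells) and imaged at 10x (4 fields per well, IN Cell Analyzer 6000). Cells were classified with Cellpose/CellProfiler plus a Random Trees classifier. Values are per-well mean counts per image field (raw, not min-max normalised) and the median microglial FormFactor per image. Three technical replicates per repeat across 4 biological repeats; DMSO and BAY61-3606 serve as controls.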

Structure (SMILES) | necrotic cell count
CN(C)C(=O)Oc1ccc2cc(Br)ccc2c1Br | 85.9 ± 33
NCCc1cc(I)c(Oc2ccc(O)c(I)c2)c(I)c1 | 102 ± 37
C[N+]1(C)[C@@H]2C[C@@H](OC(=O)[C@H](CO)c3ccccc3)C[C@H]1[C@@H]1O[C@@H]12 | 78.5 ± 28
C[N+]1(C)CCO[C@@](O)(c2ccc(-c3ccc([C@@]4(O)C[N+](C)(C)CCO4)cc3)cc2)C1 | 76.1 ± 30
N#Cc1nn(-c2c(Cl)cc(C(F)(F)F)cc2Cl)c(N)c1[S+]([O-])C(F)(F)F (stereo not given) | 61.2 ± 35
O=C1NC(=O)N(c2cccc3ccccc23)C(=O)/C1=C\c1c[nH]c2ccccc12 | 56.9 ± 21
CN/C(=N\S(=O)(=O)c1ccc(Cl)cc1)N1CC(c2ccccc2)C(c2ccc(Cl)cc2)=N1 (stereo not given) | 78.8 ± 24
c1ccc(CCCN2CCN(CCOC(c3ccccc3)c3ccccc3)CC2)cc1 | 76.5 ± 37
C[C@@H]1CN([C@H]2CC[C@](C#N)(c3ccc(F)cc3)CC2)CC[C@]1(C(=O)O)c1ccccc1 | 79.6 ± 26
CCNC(=O)C[C@@H]1N=C(c2ccc(Cl)cc2)c2cc(OC)ccc2-n2c(C)nnc21 | 422 ± 65
CCOc1ccccc1N1CCN(Cc2cccc3ccccc23)CC1 | 82.4 ± 36
O=C(NC1CN2CCC1CC2)c1cc(Br)cc2nc[nH]c12 (stereo not given) | 76.4 ± 35
Cn1c(CCCC(=O)O)nc2cc(N(CCCl)CCCl)ccc21 | 92.8 ± 48
Clc1ccc(OC[C@H]2CCN2)cn1 | 81.8 ± 32
C=CCN(CC=C)CCc1c[nH]c2ccc(OC)cc12 | 81.3 ± 35
C[C@]12CC[C@H](O)C[C@H]1CC[C@@H]1[C@@H]2CC[C@]2(C)[C@@H](C3=CC(=O)OC3)CC[C@]12O | 76.8 ± 29
Cc1cccc(NC(=O)N[C@@H]2N=C(c3ccccc3)c3ccccc3N(C)C2=O)c1 | 73.7 ± 23
Clc1ccc2c(c1Cl)CNCC2 | 86.8 ± 42
C=C(C)[C@H]1Cc2c(ccc3c2O[C@@H]2COc4cc(OC)c(OC)cc4[C@@H]2C3=O)O1 | 547 ± 180
O=C(O[C@H]1C[N+]2(CCCOc3ccccc3)CCC1CC2)C(O)(c1cccs1)c1cccs1 | 83.7 ± 22

Same assay, conditions: LPS 100 ng/mL; 1 µM; treatment time 3 days

Structure (SMILES) | necrotic cell count
CN(C)C(=O)Oc1ccc2cc(Br)ccc2c1Br | 985 ± 240
NCCc1cc(I)c(Oc2ccc(O)c(I)c2)c(I)c1 | 949 ± 300
C[N+]1(C)[C@@H]2C[C@@H](OC(=O)[C@H](CO)c3ccccc3)C[C@H]1[C@@H]1O[C@@H]12 | 1100 ± 330
C[N+]1(C)CCO[C@@](O)(c2ccc(-c3ccc([C@@]4(O)C[N+](C)(C)CCO4)cc3)cc2)C1 | 1000 ± 300
N#Cc1nn(-c2c(Cl)cc(C(F)(F)F)cc2Cl)c(N)c1[S+]([O-])C(F)(F)F (stereo not given) | 932 ± 430
O=C1NC(=O)N(c2cccc3ccccc23)C(=O)/C1=C\c1c[nH]c2ccccc12 | 884 ± 170
CN/C(=N\S(=O)(=O)c1ccc(Cl)cc1)N1CC(c2ccccc2)C(c2ccc(Cl)cc2)=N1 (stereo not given) | 952 ± 400
c1ccc(CCCN2CCN(CCOC(c3ccccc3)c3ccccc3)CC2)cc1 | 916 ± 180
C[C@@H]1CN([C@H]2CC[C@](C#N)(c3ccc(F)cc3)CC2)CC[C@]1(C(=O)O)c1ccccc1 | 894 ± 240
CCNC(=O)C[C@@H]1N=C(c2ccc(Cl)cc2)c2cc(OC)ccc2-n2c(C)nnc21 | 1680 ± 470
CCOc1ccccc1N1CCN(Cc2cccc3ccccc23)CC1 | 868 ± 330
O=C(NC1CN2CCC1CC2)c1cc(Br)cc2nc[nH]c12 (stereo not given) | 1040 ± 460
Cn1c(CCCC(=O)O)nc2cc(N(CCCl)CCCl)ccc21 | 1050 ± 450
Clc1ccc(OC[C@H]2CCN2)cn1 | 973 ± 330
C=CCN(CC=C)CCc1c[nH]c2ccc(OC)cc12 | 955 ± 300
C[C@]12CC[C@H](O)C[C@H]1CC[C@@H]1[C@@H]2CC[C@]2(C)[C@@H](C3=CC(=O)OC3)CC[C@]12O | 984 ± 300
Cc1cccc(NC(=O)N[C@@H]2N=C(c3ccccc3)c3ccccc3N(C)C2=O)c1 | 1050 ± 250
Clc1ccc2c(c1Cl)CNCC2 | 848 ± 310
C=C(C)[C@H]1Cc2c(ccc3c2O[C@@H]2COc4cc(OC)c(OC)cc4[C@@H]2C3=O)O1 | 1490 ± 330
O=C(O[C@H]1C[N+]2(CCCOc3ccccc3)CCC1CC2)C(O)(c1cccs1)c1cccs1 | 992 ± 280

Source: the supplement of paper PMC10973195
